Test results reported in patent US9962341B2, “Active pharmaceutical ingredient (API) comprising cannabinoids for use in the treatment of cancer” (GW Pharma Limited, priority 2014, dated 2018).

System: MKN45
Experiment: Cell viability (CellTiter-Blue, 72 h), MKN45 gastric cancer cells
Assay type: cell-based
Details: 1% FBS
Method: The following cell lines were tested in this example: Lung Cancer (A549, NCI-H460); Pancreatic cancer (PANC1, Mia-Pa-Ca-2); Melanoma (WM115, A375); Ovarian cancer (OVCAR3, SKOV3); Gastric cancer (MKN45, HGC-27); Renal cancer (ACHN) and Bladder Cancer (RT112).
Each tumour cell line was maintained in vitro in RPMI 1640+10% heat inactivated FBS and 2 mM L-glutamine (growth media) at 37° C. in 5% CO2 and humidified conditions. The cells were harvested, washed, re-suspended into growth medium and counted. The cells were re-suspended into assay media (RPMI 1640+5% heat inactivated FBS+ and 2 mM L-glutamine) at 4×10^4 cells/ml (dependent upon cell type) and plated into the middle 240 wells of 384 well tissue culture plates (Corning CellBind, black-wall plates) 25 μl/well aliquots; 50 μl of growth media was aliquoted into the outer wells. There were 3 plates for each cell line.
The plates were incubated overnight at 37° C., in 5% humidified CO2.
The phytocannabinoid test compounds were prepared in 100% DMSO vehicle at a stock concentration of 20 and 40 mM.
Starting with the 20 mM stock in DMSO, this was serially diluted (2 fold) in DMSO in a 96-well plate, to 20 (no dilution), 10, 5, 2.5, 1.25, 0.625, 0.315, 0.157 and […]. Following this, 10 ul of each compound dilution was diluted into 990 ul of 1% (v/v) FBS media in a deep well block making the final concentrations of 200, 100, 50, 25, 12.5, 6.25, 3.125, 1.56 and 0.79 μM (2× final assay concentrations and 1% DMSO).
An equal volume of each cannabinoid in the combination (stock concentration 40 mM) was mixed together to make a stock of 20 mM of each cannabinoid in DMSO. This was serially diluted (2 fold) in DMSO in a 96-well plate, to 20 (no dilution), 10, 5, 2.5, 1.25, 0.625, 0.315, 0.157 and […]. Following this, 10 ul of each combination dilution was diluted into 990 ul of 1% (v/v) FBS media in a deep well block making the final concentrations of 200, 100, 50, 25, 12.5, 6.25, 3.125, 1.56 and 0.79 μM (2× final assay concentrations and 1% DMSO).
Cisplatin (stock of 1 mg/ml=3.33 mM in water) was diluted in 1% FBS media to give a stock concentration of 1 mM. This was then diluted in 1% FBS media from the stock solution to 200 μM, then serially diluted (3-fold) in 1% FBS media to 200 (no dilution), 66.66, 22.22, 7.41, 2.47, 0.82, 0.27, 0.09, 0.03 μM (2× final assay concentrations; no DMSO).
The plates were incubated for 72 h at 37° C. in 5% humidified CO2. To develop the plates, at 72 h, 10 μl of CellTiter-Blue™ reagent was added to each test/blank well.
The plates were incubated at 37° C., 5% humidified CO2. Fluorescence was measured using a Flex II Station plate reader (570 nm excitation wavelength, 600 nm emission wavelength, 590 nm cut-off) after 3 h.
The phytocannabinoid compounds CBD, CBGA, CBG, CBDA, THCV and THC were tested on a panel of lung (A549, NCI-H460), pancreatic (PANC1, Mia-Pa-Ca-2), melanoma (WM115, A375), ovarian (OVCAR3, SKOV3), gastric (MKN45, HGC-27), renal (ACHN) and bladder (RT112) cancer cell lines according to the protocol for 72 h in media containing 1% FBS.
The IC50 values for each phytocannabinoid and combination of CBD with the other phytocannabinoids was calculated for each cell line. The raw data values expressed in relative fluorescent units were normalised to the vehicle for each individual plate and any reduction in fluorescence indicated a decrease in viability.
This calculation was as described in Example 1 above.

Row | SMILES | m (shape parameter of the curve)
1 | C=C(C)[C@@H]1CCC(C)=C[C@H]1c1c(O)cc(CCCCC)cc1O [CBD, Cannabidiol] | 9.82
2 | C=C(C)[C@@H]1CCC(C)=C[C@H]1c1c(O)cc(CCCCC)c(C(=O)O)c1O [CBDA, Cannabidiolic acid] | 2.98
3 | CCCCCc1cc(O)c(C/C=C(\C)CCC=C(C)C)c(O)c1 [CBG, Cannabigerol] | 10.80
4 | CCCCCc1cc(O)c(C/C=C(\C)CCC=C(C)C)c(O)c1C(=O)O [CBGA, Cannabigerolic acid] | 3.48
5 | CCCc1cc(O)c2c(c1)OC(C)(C)[C@@H]1CCC(C)=C[C@@H]21 [THCV, Tetrahydrocannabivarin] | 5.90
